Test results from patent US20040214255A1.
Results are given in words; binding and its absence hold for the method and conditions named. Some entries that bind do so weakly or less than the wild type. For part of these data: Sequences can lack the tags named with a protein.

Sequences of proteins named here, by UniProt entry; tags and fusion partners are left off. Residues count along the entry.
UniProt P31751, residues 276-408: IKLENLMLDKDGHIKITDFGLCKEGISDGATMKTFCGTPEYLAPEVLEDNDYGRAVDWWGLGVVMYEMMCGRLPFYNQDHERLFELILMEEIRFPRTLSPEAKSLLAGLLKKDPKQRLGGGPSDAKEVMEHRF
UniProt Q99471, residues 14-154: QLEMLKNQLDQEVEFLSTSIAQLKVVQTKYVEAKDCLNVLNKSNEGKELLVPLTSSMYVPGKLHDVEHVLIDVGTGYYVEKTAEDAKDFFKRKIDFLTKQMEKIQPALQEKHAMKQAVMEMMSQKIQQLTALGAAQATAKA
UniProt P63010, residues 214-594: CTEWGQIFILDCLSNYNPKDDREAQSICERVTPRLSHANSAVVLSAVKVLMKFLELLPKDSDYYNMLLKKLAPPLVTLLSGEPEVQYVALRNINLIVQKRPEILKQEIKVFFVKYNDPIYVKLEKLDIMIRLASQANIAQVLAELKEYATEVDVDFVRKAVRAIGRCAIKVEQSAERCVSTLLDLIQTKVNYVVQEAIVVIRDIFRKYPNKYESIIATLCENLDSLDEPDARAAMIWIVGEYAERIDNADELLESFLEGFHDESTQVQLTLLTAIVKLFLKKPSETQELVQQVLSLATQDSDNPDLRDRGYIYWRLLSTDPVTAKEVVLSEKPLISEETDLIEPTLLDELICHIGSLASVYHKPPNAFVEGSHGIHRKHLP
UniProt Q01082, residues 1545-1789: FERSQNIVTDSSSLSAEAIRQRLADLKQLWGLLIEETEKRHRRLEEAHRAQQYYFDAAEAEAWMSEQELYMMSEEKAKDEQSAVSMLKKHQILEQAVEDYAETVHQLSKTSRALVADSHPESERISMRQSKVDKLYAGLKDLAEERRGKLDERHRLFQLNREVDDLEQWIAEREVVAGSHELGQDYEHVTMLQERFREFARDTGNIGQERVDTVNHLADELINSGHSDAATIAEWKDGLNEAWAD

Tests used:
Assay in all cases: yeast two-hybrid
[1] = molecular target: Akt kinase 2 (Akt2), amino acids 276-408 (human) (UniProt P31751)
[2] = molecular target: C-myc Binding Protein (MM-1), amino acids 27-175 (human) (UniProt Q99471)
[3] = molecular target: T1, Glucose Transporter 4, amino acids 463-510 (human) (UniProt P14672)
T1 sequence (looked up): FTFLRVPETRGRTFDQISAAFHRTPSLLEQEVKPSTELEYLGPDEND

“Beta Adaptin, amino acids 214-594 (from UniProt P63010 214-594)” was tested, and the binding [1] was “binds”.

With “Beta Spectrin, amino acids 1545-1789 (from UniProt Q01082 1545-1789)” the binding [2] was “binds”.

“MM-1, amino acids 27-168 (from UniProt Q99471 14-154)” was tested, and the binding [3] was “binds”.
